These are yes or no findings as the source states them, for the method shown. Sequences can lack the tags named with a protein.
B1: DLG-1 (fluorescently tagged at the endogenous locus, Figure 5A, B, D, E) (protein, UniProt G5ECY0 1-967)
chain: MSHESSEKAHKAIENVEDYCQTLTRHGNEELRTNLERVITTFKSNLMHSLLDIHDLYEQTLLSERKSDAEKNMEVRRVIERLEGGPHSYNSRPAATTSTSNYNLSSTTPLISDLRDRGGFSYLNGGGLGNGLGNGLGNGLLSSPYNSSSTHYLHERQRQTSHDGTWRETTTRTVDTPSGLERRVVEHTGVIDDHGRKWELENIVLEKGHTGLGFSITGGMDQPTEDGDTSIYVTNIIEGGAALADGRMRKNDIITAVNNTNCENVKHEVAVNALKSSGNVVSLSLKRRKDEAFLPIGGNFGGSTSYLRSGVTPSVSAGNLQHAIHSPSAPIHPPPPPPVHHGSLSQLSVGQYRSTRPNTSVIDLVKGARGLGFSIAGGQGNEHVKGDTDIYVTKIIEEGAAELDGRLRVGDKILEVDHHSLINTTHENAVNVLKNTGNRVRLLIQQGTGAIFNDSASQQFMPTTPILRPSSVQDYNRSQMGSQSHLSYGGPLNTSYSSQAPIAIPLEPRPVQLVKGQNGLGFNIVGGEDNEPIYISFVLPGGVADLSGNVKTGDVLLEVNGVVLRNATHKEAAEALRNAGNPVYLTLQYRPQEYQIFESKIEKLRNDVIAQSRMGTLSRKSEYVRALFDYDPSRENSVAPHRSMGFNYGDILHIINSSDDEWWTARKVHENGEETAEGVIPSKKRVEKRERLRRKQVNFNSGSQSLGRNSSTTGLENRRGSRSQLSFSRKFPFVKSTDRLNDLNEESSNVAEEPVWSYQAVEQQAINYVRPVIILGALKDRINDELVNRDPSKFSSCVPHTSRPPREGEVNGRDYYFVNKHNMEEDVKNNLFIEAGQFQNNLYGTSIQSVRDVANQGRHCILDVSGNAIRRLQSNANIQPISIFIKPSSAQQILELDSQLATNRQDDRAMSGEEAQAQYSRCHRIEQTFGDLFTQEISNVHSANDVLSKVYSIISRESQTPIWVPRH

By UniProt entry, the sequences of proteins in these tests, tags left out.
UniProt O61967: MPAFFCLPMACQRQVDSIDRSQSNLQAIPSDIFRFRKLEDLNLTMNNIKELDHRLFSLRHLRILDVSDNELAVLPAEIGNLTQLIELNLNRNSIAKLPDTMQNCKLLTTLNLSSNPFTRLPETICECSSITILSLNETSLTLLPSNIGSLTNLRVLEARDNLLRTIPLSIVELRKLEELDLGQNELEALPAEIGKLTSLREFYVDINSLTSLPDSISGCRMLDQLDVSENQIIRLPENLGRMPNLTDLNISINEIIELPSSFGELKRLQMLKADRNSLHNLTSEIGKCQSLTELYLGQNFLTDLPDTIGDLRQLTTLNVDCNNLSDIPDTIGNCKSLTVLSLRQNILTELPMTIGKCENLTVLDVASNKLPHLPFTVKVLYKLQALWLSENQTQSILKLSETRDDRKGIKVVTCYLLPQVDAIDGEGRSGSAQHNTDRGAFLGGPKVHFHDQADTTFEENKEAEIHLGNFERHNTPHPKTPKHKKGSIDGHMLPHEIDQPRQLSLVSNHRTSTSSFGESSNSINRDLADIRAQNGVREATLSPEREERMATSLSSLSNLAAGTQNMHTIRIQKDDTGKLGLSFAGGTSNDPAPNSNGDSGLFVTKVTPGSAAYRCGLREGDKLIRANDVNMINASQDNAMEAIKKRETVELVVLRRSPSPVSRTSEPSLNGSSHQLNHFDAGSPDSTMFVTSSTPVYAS

Key:
[1] = molecular target: T1, DLG-1 (fluorescently tagged at the endogenous locus, Figure 5A, B, D, E) (C. elegans) (UniProt G5ECY0); experiment: CeLINC
T1 sequence: B1 chain

[2] = molecular target: LET-413 (fluorescently tagged at the endogenous locus) (C. elegans) (UniProt O61967); experiment: CeLINC

Molecule	binding [1]	binding [2]
LET-413 (fluorescently tagged at the endogenous locus) (from UniProt O61967 1-699)	no binding	
B1		no binding

From publication doi:10.1101/2021.06.01.446599
